Measured values as given in paper PMC12462935, “TRIM21‐Mediated K11‐Linked Ubiquitination of ID1 Suppresses Tumorigenesis and Promotes Cuproptosis in Esophageal Squamous Cell Carcinoma” (Advanced Science, 2025).
No constants are given. Whether binding was seen depends on the method and setting. In cells and extracts the contact can be indirect. A yes stands for co-enrichment or nearness to the bait. Other partners may have been found. Tags and fused reporters may be left off the sequences shown.

Sequences of proteins named here, by UniProt entry; tags and fusion partners are left off.
UniProt Q16531: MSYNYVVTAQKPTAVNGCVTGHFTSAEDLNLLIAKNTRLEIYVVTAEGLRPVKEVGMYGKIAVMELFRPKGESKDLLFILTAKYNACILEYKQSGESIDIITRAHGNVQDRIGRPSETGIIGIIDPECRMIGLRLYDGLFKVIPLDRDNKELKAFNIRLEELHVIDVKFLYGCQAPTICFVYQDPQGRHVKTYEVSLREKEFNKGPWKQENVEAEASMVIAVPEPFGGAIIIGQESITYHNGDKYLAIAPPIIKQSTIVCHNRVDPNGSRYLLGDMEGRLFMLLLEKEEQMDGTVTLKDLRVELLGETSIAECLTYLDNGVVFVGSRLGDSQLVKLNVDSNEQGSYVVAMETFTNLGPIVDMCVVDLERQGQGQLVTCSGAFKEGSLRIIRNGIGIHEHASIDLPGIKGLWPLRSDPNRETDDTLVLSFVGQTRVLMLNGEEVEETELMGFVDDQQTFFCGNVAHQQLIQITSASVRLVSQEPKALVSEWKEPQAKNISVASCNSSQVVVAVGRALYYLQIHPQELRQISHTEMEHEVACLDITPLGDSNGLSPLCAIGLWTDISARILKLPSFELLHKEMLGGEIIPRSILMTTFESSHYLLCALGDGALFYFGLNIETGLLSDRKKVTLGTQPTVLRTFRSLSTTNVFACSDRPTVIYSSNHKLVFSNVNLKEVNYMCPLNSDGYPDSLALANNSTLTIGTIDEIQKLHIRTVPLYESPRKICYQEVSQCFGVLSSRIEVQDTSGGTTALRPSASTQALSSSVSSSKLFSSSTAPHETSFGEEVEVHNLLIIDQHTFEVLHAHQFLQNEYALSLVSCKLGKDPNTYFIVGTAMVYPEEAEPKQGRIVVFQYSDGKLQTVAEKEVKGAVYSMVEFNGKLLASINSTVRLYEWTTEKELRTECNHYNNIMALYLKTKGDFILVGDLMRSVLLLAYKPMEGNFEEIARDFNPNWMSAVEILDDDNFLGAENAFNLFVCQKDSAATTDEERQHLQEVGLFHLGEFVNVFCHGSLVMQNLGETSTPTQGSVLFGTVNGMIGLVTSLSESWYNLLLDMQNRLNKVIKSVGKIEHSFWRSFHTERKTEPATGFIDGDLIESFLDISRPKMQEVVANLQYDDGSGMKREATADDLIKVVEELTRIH
UniProt Q14681: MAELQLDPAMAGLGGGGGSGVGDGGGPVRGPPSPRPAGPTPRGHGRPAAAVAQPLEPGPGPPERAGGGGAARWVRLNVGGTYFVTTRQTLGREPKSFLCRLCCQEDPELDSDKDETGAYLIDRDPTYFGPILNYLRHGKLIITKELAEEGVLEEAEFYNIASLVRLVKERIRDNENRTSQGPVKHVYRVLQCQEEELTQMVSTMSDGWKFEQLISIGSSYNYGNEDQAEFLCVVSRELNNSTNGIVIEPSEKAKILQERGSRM
UniProt Q9NXV2: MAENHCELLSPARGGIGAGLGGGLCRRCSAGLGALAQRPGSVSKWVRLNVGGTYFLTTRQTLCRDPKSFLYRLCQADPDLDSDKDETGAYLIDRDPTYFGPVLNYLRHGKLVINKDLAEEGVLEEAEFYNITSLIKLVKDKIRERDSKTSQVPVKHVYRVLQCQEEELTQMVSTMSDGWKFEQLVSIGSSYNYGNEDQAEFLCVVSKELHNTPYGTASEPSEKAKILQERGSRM
UniProt Q9UNE7: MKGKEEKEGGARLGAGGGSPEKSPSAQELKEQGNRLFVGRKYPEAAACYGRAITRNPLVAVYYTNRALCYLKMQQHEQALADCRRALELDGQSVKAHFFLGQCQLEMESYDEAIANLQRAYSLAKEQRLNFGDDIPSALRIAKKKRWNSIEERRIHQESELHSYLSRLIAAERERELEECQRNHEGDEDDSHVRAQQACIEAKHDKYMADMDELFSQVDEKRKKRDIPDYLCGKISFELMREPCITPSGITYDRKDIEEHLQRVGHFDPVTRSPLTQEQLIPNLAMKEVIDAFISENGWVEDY
UniProt P15884: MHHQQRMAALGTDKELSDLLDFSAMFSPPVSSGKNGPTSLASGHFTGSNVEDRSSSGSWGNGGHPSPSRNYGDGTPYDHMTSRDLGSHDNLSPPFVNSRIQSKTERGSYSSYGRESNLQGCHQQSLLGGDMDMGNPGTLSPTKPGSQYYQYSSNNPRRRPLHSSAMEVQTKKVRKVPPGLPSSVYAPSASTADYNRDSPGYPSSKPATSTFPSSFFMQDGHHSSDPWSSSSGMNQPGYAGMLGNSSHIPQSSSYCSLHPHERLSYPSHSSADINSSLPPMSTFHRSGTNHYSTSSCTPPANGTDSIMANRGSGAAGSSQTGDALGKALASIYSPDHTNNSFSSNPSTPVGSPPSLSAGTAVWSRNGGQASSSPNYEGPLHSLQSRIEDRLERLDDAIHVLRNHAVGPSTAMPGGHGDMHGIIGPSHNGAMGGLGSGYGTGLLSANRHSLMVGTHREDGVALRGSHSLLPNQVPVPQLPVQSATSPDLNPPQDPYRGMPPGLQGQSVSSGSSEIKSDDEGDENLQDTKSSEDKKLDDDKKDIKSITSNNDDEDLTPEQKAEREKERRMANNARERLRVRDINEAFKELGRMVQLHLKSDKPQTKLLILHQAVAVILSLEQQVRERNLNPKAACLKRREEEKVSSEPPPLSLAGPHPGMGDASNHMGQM
UniProt P19474: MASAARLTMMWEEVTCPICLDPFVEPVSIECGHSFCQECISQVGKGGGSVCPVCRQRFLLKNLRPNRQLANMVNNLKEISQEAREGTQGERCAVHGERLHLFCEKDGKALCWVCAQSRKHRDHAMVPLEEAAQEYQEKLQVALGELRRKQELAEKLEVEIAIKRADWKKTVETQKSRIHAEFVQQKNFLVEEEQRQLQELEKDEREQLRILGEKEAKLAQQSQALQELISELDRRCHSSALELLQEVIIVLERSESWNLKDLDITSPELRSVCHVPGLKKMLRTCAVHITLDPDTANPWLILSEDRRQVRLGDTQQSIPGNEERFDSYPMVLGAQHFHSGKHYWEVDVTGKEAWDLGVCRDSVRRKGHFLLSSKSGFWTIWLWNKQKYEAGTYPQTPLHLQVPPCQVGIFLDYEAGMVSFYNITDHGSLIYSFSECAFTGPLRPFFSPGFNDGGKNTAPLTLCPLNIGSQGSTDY
UniProt Q13263: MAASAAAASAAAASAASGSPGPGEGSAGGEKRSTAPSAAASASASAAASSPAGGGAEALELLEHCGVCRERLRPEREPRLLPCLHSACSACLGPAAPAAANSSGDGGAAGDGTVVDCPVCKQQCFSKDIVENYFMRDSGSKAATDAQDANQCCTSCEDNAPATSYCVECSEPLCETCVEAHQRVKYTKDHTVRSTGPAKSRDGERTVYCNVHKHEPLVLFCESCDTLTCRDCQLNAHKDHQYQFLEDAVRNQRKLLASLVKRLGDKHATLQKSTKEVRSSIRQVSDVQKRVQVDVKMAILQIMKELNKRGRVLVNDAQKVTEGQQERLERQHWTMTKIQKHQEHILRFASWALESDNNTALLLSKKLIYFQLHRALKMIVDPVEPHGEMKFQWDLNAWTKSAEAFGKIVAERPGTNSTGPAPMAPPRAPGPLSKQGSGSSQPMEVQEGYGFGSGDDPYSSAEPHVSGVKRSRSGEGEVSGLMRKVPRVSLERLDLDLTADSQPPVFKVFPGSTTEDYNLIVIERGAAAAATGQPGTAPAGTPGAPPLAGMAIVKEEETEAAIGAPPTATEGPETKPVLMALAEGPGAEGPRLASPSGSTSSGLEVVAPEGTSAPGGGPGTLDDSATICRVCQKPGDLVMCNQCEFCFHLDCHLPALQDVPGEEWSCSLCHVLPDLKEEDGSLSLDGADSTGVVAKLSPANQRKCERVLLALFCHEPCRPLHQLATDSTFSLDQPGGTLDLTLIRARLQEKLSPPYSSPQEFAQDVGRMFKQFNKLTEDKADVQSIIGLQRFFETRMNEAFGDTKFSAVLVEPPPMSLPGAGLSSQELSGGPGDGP

Molecular target: T1, ID1-Flag (UniProt P41134)
T1 sequence: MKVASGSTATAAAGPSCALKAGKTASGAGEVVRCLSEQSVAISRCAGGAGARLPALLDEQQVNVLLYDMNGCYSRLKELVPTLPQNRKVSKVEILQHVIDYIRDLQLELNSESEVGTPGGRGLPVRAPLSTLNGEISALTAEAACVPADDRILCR
Assay: affinity purification with mass spectrometry; KYSE30 and KYSE450 cells transfected with control or ID1-Flag plasmids, harvested 48 h post-transfection; immunoprecipitates separated by SDS-PAGE, in-gel trypsin digestion, Q Exactive HF

“DDB1 (endogenous) (from UniProt Q16531 1-1140)” was tested, and the binding was “binds”.
In the case of “KCTD2 (endogenous) (from UniProt Q14681 1-263)”, the binding is reported as “binds”.
For “KCTD5 (endogenous) (from UniProt Q9NXV2 1-234)”, the binding was “binds”.
For “STUB1 (endogenous) (from UniProt Q9UNE7 1-303)”, the binding was “binds”.
In the case of “TCF4 (endogenous) (from UniProt P15884 1-667)”, the binding is reported as “binds”.
“TRIM21 (endogenous) (from UniProt P19474 1-475) (enzyme)” was tested, and the binding was “binds”.
In the case of “TRIM28 (endogenous) (from UniProt Q13263 1-835)”, the binding is reported as “binds”.
